# Results: PubChem BioAssay AID2685 (National Center for Advancing Translational Sciences (NCATS), 2010)
# In all, about 320,000 compounds went through this assay and about 2,100 (0.66%) were called active. The shares of active, inactive and inconclusive entries below differ from those in the screen. The call rests on the fitted dose curve; in most records, active means well fitted inhibition curve with a large enough effect in the signal ratio, with a control signal flat (not every such curve was filed as active); inconclusive means small, poorly fitted or top-dose-only effect, or effect the other way, or a change in a side signal; inactive means flat fitted curve, though single readings scatter; the % refers to the signal ratio. Potencies of inconclusive entries are doubtful fits and often do not repeat.
# Assay: qHTS Assay for Lipid Storage Modulators in Drosophila S3 Cells
# Settings: BODIPY lipid droplet fluorescence, 18-24 h, cells fed with added oleic acid; lipid storage change, negative = inhibition: at 46.1 µM (top of the series) unless noted
# How it was run: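 Drosophila S3 cells loaded with oleic acid (400 uM, as added) and compounds at several concentrations; lipid droplets imaged by 488-nm laser-scanning cytometry, 500–530 nm intensity and object ratio to cell channel. Percent activity normalized to 20 uM Triacsin C.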
# On the % scale 0 is the no-effect control and ±100 the full control effect; potency means the concentration at half of the fitted maximal effect.
SMILES,"lipid storage change, negative = inhibition",Potency
COc1cc(N)c(Br)cc1C(=O)O,inactive,
CC1CCN(S(=O)(=O)c2cccc(C(=O)N3CCN(c4ccc(F)cc4)CC3)c2)CC1,,"inconclusive: 29.1 µM [falling, single point]"
CC(=O)Nc1ccc(-c2nc3c(C)cccc3[nH]2)cc1,inconclusive: 93.2%,
O=C(NCCS(=O)(=O)N1CCN(c2ccccc2)CC1)c1cccc(F)c1,inconclusive: 31.5%,
COc1ccc(N2CCOCC2)c(NC(=O)c2cccs2)c1,,"inconclusive: 32.6 µM [falling, single point]"
COc1ccc(N2CCCn3c2nc2c3c(=O)n(Cc3ccc(C)cc3)c(=O)n2C)c(OC)c1,inconclusive: -14.9%,
Cc1ccc2nc(SCC(=O)Nc3ccc(F)cc3F)nc(=O)n2c1,,"inconclusive: 0.92 µM [falling, full curve, poor fit]"
CCC(C(=O)NCc1ccc(C)o1)n1nc(C)c2c(C)n(-c3ccccc3)nc2c1=O (stereo not drawn),,"inconclusive: 29.1 µM [falling, single point]"
COc1ccc(C(=O)N2CCC(N3CCN(c4ccccc4)CC3)CC2)cc1OC,,"inconclusive: 0.651 µM [falling, single point]"
O=C1c2cccc(OCC(=O)N3CCCc4ccccc43)c2CCN1Cc1ccccc1,inconclusive: -22.9%,
Cc1ccc(C)c(N2N=C(C(=O)N(CC(C)C)c3c(N)n(Cc4ccccc4)c(=O)[nH]c3=O)CCC2=O)c1,inconclusive: -62.8%,
CC(C)c1ccc(/C=N/NC(=O)C2CCCC2)cc1,,active: 3.26 µM
CCC(=Nc1ccc(N)cc1)C1=C(O)C(C(=O)OC)C(C)(C)CC1=O (stereo not drawn),,"inconclusive: 0.13 µM [activator, full curve, poor fit]"
CC(=O)Nc1ccc(S(=O)(=O)N2CCN(C(=O)c3ncoc3-c3ccccc3F)CC2)cc1,inconclusive: -34.9%,
O=C(NCC1CCCO1)C1CCN(S(=O)(=O)c2ccc(Br)cc2)CC1 (stereo not drawn),,"inconclusive: 29.1 µM [falling, single point]"
CSc1ccc(CNCC2CCCO2)cc1 (stereo not drawn),inconclusive: 58.1%,
O=C(N/N=C/c1cccc([N+](=O)[O-])c1)c1cc(-c2ccc3c(c2)OCO3)n[nH]1,inconclusive: 17.6%,
CCC(CCC(=O)Nc1ccc(S(N)(=O)=O)cc1)C(=O)O (stereo not drawn),inconclusive: -23.1%,
COc1cc(/C=N/NC(=O)COc2ccccc2[N+](=O)[O-])ccc1OC(=O)c1ccco1,inconclusive: 34.8%,
Cc1cc(-c2ccco2)n(-c2ccccc2)n1,,"inconclusive: 0.164 µM [falling, full curve, poor fit]"
CC(C(=O)Nc1ccc(F)c(F)c1F)N(C)CCOc1ccccc1 (stereo not drawn),,"inconclusive: 6.51 µM [activator, single point]"
CS(=O)(=O)c1ccc(N2CCN(c3ccccn3)CC2)c([N+](=O)[O-])c1,inconclusive: -71.6%,
Cc1ccc(NC(=O)COC(=O)CCC(=O)c2cccs2)cc1C,,"inconclusive: 25.9 µM [falling, single point]"
COc1ccccc1Nc1nc(N)nc(CSC(=S)N2CCCCC2C)n1 (stereo not drawn),inconclusive: 14.4%,
N#Cc1cccc(NC(=O)CSc2sc3c(O)cc(=O)[nH]c3c2C#N)c1,inconclusive: 66.2%,
COc1ccc(N2C(=O)C(O)C2c2ccc(C)cc2)cc1 (stereo not drawn),inconclusive: 5.99%,

SMILES,"lipid storage change, negative = inhibition",Potency
Cc1cc(C)n(/N=C\c2c(O)ccc3ccccc23)c(=O)c1C(N)=O,inconclusive: -36.9%,
CCCCN(c1ccccc1)c1ncnc2nc[nH]c12,inactive,
CCOc1cc(/C=N/NC(N)=S)cc(Br)c1OCc1ccccc1C,inconclusive: 158%,
CC1=NN(c2ccccc2)C(=O)/C1=C\c1cc(C)n(-c2ccccc2)c1C,,"inconclusive: 3.66 µM [falling, single point]"
CC(C)N1CCC(N2CCN(Cc3ccc(-c4ccc(Cl)cc4)o3)CC2CCO)CC1 (stereo not drawn),inconclusive: 17.4%,
CCN(CC)C(=O)C1=C(C)NC(=O)NC1c1ccccc1F (stereo not drawn),inconclusive: -40.4%,
O=C1CCCN1c1ccc(S(=O)(=O)N2CCCCC2)cc1,inconclusive: 15.9%,
CN(C)c1ccc(C#Cc2ccc3cc(CCO)oc(=O)c3c2)cc1,inactive,
COc1ccc(CCN2C(=O)C3C4CC(C5C(C(=O)NN)=NOC45)C3C2=O)cc1OC (stereo not drawn),,"inconclusive: 29.1 µM [falling, single point]"
CCOC(=O)CSCC(=O)Nc1nnc(-c2cccc([N+](=O)[O-])c2)s1,inconclusive: 33%,
NC(=O)c1ccsc1NC(=O)COC(=O)Cc1n[nH]c(=O)c2ccccc12,,"inconclusive: 18.4 µM [falling, single point]"
Cc1ccc(S(=O)(=O)NCc2ccc(C(=O)N3CCCC3)cc2)cc1,inconclusive: -1.46%,
CCN1CCN(S(=O)(=O)Cc2ccccc2Cl)CC1,inactive,
COCCN(C(=O)c1ccc(OCC(C)C)cc1)c1c(N)n(Cc2ccccc2)c(=O)[nH]c1=O,inconclusive,
CN(CC(=O)Nc1ccccc1C(F)(F)F)C(=O)c1ccc(N2C(=O)CCC2=O)cc1,inconclusive: -0.126%,
Nc1ncnc2c1ncn2[C@H]1C[C@H](O)[C@@H](CO)O1,inconclusive: -17.4%,
COc1ccc(C(=O)Nc2ccc(Nc3ccccc3)cc2)cc1[N+](=O)[O-],inconclusive: -17.9%,
O=C(c1ccco1)N1CCN(C(=O)C2CC(c3ccccc3F)=NO2)CC1 (stereo not drawn),inconclusive: -17.6%,
CCC(C)NS(=O)(=O)c1ccc(NC(=O)C(Sc2ccccc2)c2ccccc2)cc1 (stereo not drawn),inconclusive: -14.8%,
O=C(COc1ccc(OCc2ccccc2)cc1)NN=C1CCCC1,inconclusive: 12%,
O=C(NC1CCN(C(=O)c2cccs2)CC1)c1ccccc1,inconclusive: -25.4%,
CC1(C)Cc2c(sc(NC(=O)COc3ccc(Cl)cc3)c2C(N)=O)C(C)(C)N1,,"inconclusive: 3.66 µM [activator, full curve, poor fit]"
CCOc1cc(Br)ccc1S(=O)(=O)N1CC(C)OC(C)C1 (stereo not drawn),,"inconclusive: 6.51 µM [activator, single point]"
NC(=O)C(c1ccc(Sc2ccccc2)nn1)c1ccc(Cl)cc1Cl (stereo not drawn),inconclusive: 92.7%,
CC(C)OCC(O)CS(=O)(=O)Cc1ccccc1 (stereo not drawn),,"inconclusive: 0.82 µM [activator, full curve, poor fit]"
N#CCn1c(CCl)nc2ccccc2c1=O,inconclusive: 7.51%,

SMILES,"lipid storage change, negative = inhibition",Potency
COc1ccc(CNC(=O)CN2CCN(c3ccc(F)cc3)CC2)cc1,inconclusive: 33.7%,
Nc1cc(N)nc(SCC(=O)NC(=O)NC2CCCC2)n1,inconclusive: 4.85%,
COc1ccc(C(=O)Nc2cc3c4c(c2)C(C)C(=O)N4CCC3)c(OC)c1 (stereo not drawn),inconclusive,
O=C(CCC1COc2ccccc2O1)Nc1ncccc1O (stereo not drawn),inconclusive: 62.9%,
CCC(C)Nc1cc(C)nc2ncnn12 (stereo not drawn),,"inconclusive: 29.1 µM [cytotoxic, single point]"
COCC(C)NS(=O)(=O)c1ccc(NC(=O)c2ccccn2)cc1 (stereo not drawn),inconclusive: 8.33%,
Cc1nc(SCC(=O)NCC2CCCO2)c2c3c(sc2n1)CCC3 (stereo not drawn),,"inconclusive: 29.1 µM [falling, single point]"
COc1ccc(/C(N)=N/OC(=O)COc2ccccc2Cl)cc1,inconclusive: 31.5%,
O=C(N/N=C/c1ccncc1)c1cccc(S(=O)(=O)Nc2ccc(Cl)cc2)c1,inconclusive: 23.4%,
Cc1noc(C)c1C(=O)Nc1nc(-c2ccc(F)c(F)c2)cs1,inconclusive: 12%,
COc1ccc(-c2nc(N)nc(C(F)(F)F)c2-c2cscn2)c(O)c1,inconclusive: 2.63%,
CC(=O)N1CCC(C(=O)Nc2ccc(S(=O)(=O)N3CCCC(C)C3)cc2)CC1 (stereo not drawn),inconclusive,
NC(=O)CN1CCN(Cc2ccc3c(c2)OCO3)CC1,,"inconclusive: 20.6 µM [activator, single point]"
O=C(O)C1C2C=CC(C2)C1C(=O)NC1CCN(Cc2ccccc2)CC1 (stereo not drawn),inconclusive: -21.3%,
Cc1cc(C)n2nc(C(=O)OCC(=O)c3ccccc3Cl)nc2n1,,"inconclusive: 29.1 µM [activator, partial curve, poor fit]"
N#Cc1ccccc1OCC(=O)Nc1ccc2c(c1)OCCCO2,inactive,
CCN1C(=O)[C@H]2[C@@H](c3ccc(Cl)cc3)N3C(=O)CN(Cc4ccccc4)C(=O)[C@@]3(C)[C@H]2C1=O,,"inconclusive: 32.6 µM [activator, single point]"
COc1ccc(-c2cc(-c3nnc(-c4ccncc4)o3)c3ccccc3n2)cc1,inconclusive: 24%,
O=C(CCNC(=O)c1ccc(Cl)cc1)NNC(=O)c1ccc(F)cc1,inconclusive,
Cc1sc2nc(SCC(=O)Nc3ccc(S(N)(=O)=O)cc3)[nH]c(=O)c2c1C,,"inconclusive: 10.3 µM [activator, partial curve]"
CCc1ccc2nc(NC(=O)c3ccc(N4C(=O)CCC4=O)cc3)sc2c1,inconclusive: -16.4%,
FC(F)Sc1ccc(NC2=NCCCCC2)cc1,inconclusive: 26.1%,
CC12CCCC[C@@H]1CCC1C2CCC2(C)C1CC[C@@]2(O)CNCCO (stereo partly drawn),inconclusive: -7.03%,
Cc1ccc(C)n1-c1ccc(C(=O)NN)cc1,inconclusive: 14.6%,
CCC(C)(C)C1CCC2(CC1)NC(=O)N(CC(=O)Nc1cc(C(F)(F)F)ccc1N1CCOCC1)C2=O (stereo not drawn),inconclusive: 35.3%,
Cc1cc2nc3c(=O)n(C4CCCCC4)c(=O)[nH]c3nc2cc1N,inconclusive: -22.9%,

# Pulled one by one from above, five records:
SMILES,"lipid storage change, negative = inhibition",Potency
COCC(C)NS(=O)(=O)c1ccc(NC(=O)c2ccccn2)cc1 (stereo not drawn),inconclusive: 8.33%,
NC(=O)CN1CCN(Cc2ccc3c(c2)OCO3)CC1,,"inconclusive: 20.6 µM [activator, single point]"
N#Cc1ccccc1OCC(=O)Nc1ccc2c(c1)OCCCO2,inactive,
Cc1cc(C)n2nc(C(=O)OCC(=O)c3ccccc3Cl)nc2n1,,"inconclusive: 29.1 µM [activator, partial curve, poor fit]"
COc1ccc(-c2cc(-c3nnc(-c4ccncc4)o3)c3ccccc3n2)cc1,inconclusive: 24%,
